PubChem BioAssay AID1224827, NIAID, 2016

- Aim: 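Identify regulators of the macrophage TNF-alpha response to bacterial LPS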 (follow-up of hits)
- Cell system: RAW264.7 G9 mouse macrophage reporter clone
- Reagents: single siRNA against mouse genes, 100 nM siRNA
- Timing: siRNA for 2 days, then LPS about 16 h
- Challenge: bacterial lipopolysaccharide (LPS), 10 ng/ml, cells fixed after overnight (about 16 h) stimulation
- Detection: 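TNF promoter reporter red fluorescence in nuclei, background subtracted, normalised per plate and to non-targeting control siRNA, as z-scores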
- Direction: TNF reporter z-score, mean: higher = stronger Tnf promoter reporter signal; gene median z, three same-vendor siRNAs: higher = stronger Tnf reporter signal for the gene
- Active means: 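An siRNA is called active when its mean z-score over replicates is at least +2 or at most -2; control wells get no call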
Here is one part, drawn at random, of about 3,800 deposited reagents. In the full data, about 2,200 (57%) are marked active. 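Active means a strong reporter change in either direction; calls are per siRNA, not per gene; qiagen siRNAs gave weaker effects.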 The numbers tell different reagents against one gene apart. Further read-outs or replicates are left out here.

The opening 3 records, ahead of the listing:
{"gene": "Slc5a7", "reagent no.": 1, "TNF reporter z-score, mean": 1.32, "gene median z, three same-vendor siRNAs": -2.6, "Outcome": "inactive"}
{"gene": "Slc5a7", "reagent no.": 2, "TNF reporter z-score, mean": -2.6, "gene median z, three same-vendor siRNAs": -2.6, "Outcome": "active"}
{"gene": "Slc5a7", "reagent no.": 3, "TNF reporter z-score, mean": -4.87, "gene median z, three same-vendor siRNAs": -2.6, "Outcome": "active"}

The listing, repeating the preview:
{"gene": "Slc5a7", "reagent no.": 1, "TNF reporter z-score, mean": 1.32, "gene median z, three same-vendor siRNAs": -2.6, "Outcome": "inactive"}
{"gene": "Slc5a7", "reagent no.": 2, "TNF reporter z-score, mean": -2.6, "gene median z, three same-vendor siRNAs": -2.6, "Outcome": "active"}
{"gene": "Slc5a7", "reagent no.": 3, "TNF reporter z-score, mean": -4.87, "gene median z, three same-vendor siRNAs": -2.6, "Outcome": "active"}
{"gene": "Slc5a7", "reagent no.": 4, "TNF reporter z-score, mean": 2.68, "gene median z, three same-vendor siRNAs": 0.205, "Outcome": "active"}
{"gene": "Slc5a7", "reagent no.": 5, "TNF reporter z-score, mean": -0.785, "gene median z, three same-vendor siRNAs": 0.205, "Outcome": "inactive"}
{"gene": "Slc5a7", "reagent no.": 6, "TNF reporter z-score, mean": -0.508, "gene median z, three same-vendor siRNAs": 0.205, "Outcome": "inactive"}
{"gene": "Thap11", "reagent no.": 1, "TNF reporter z-score, mean": -4.77, "gene median z, three same-vendor siRNAs": -5.09, "Outcome": "active"}
{"gene": "Thap11", "reagent no.": 2, "TNF reporter z-score, mean": -5.18, "gene median z, three same-vendor siRNAs": -5.09, "Outcome": "active"}
{"gene": "Thap11", "reagent no.": 3, "TNF reporter z-score, mean": -5.38, "gene median z, three same-vendor siRNAs": -5.09, "Outcome": "active"}
{"gene": "Thap11", "reagent no.": 4, "TNF reporter z-score, mean": 0.72, "gene median z, three same-vendor siRNAs": -0.745, "Outcome": "inactive"}
{"gene": "Thap11", "reagent no.": 5, "TNF reporter z-score, mean": -0.745, "gene median z, three same-vendor siRNAs": -0.745, "Outcome": "inactive"}
{"gene": "Thap11", "reagent no.": 6, "TNF reporter z-score, mean": -2.73, "gene median z, three same-vendor siRNAs": -0.745, "Outcome": "active"}
{"gene": "Ctsw", "reagent no.": 1, "TNF reporter z-score, mean": -1.36, "gene median z, three same-vendor siRNAs": -2.97, "Outcome": "inactive"}
{"gene": "Ctsw", "reagent no.": 2, "TNF reporter z-score, mean": -3.21, "gene median z, three same-vendor siRNAs": -2.97, "Outcome": "active"}
{"gene": "Ctsw", "reagent no.": 3, "TNF reporter z-score, mean": -3.96, "gene median z, three same-vendor siRNAs": -2.97, "Outcome": "active"}
{"gene": "Neil3", "reagent no.": 1, "TNF reporter z-score, mean": -2.69, "gene median z, three same-vendor siRNAs": -3.04, "Outcome": "active"}
{"gene": "Neil3", "reagent no.": 2, "TNF reporter z-score, mean": -3.04, "gene median z, three same-vendor siRNAs": -3.04, "Outcome": "active"}
{"gene": "Neil3", "reagent no.": 3, "TNF reporter z-score, mean": -3.62, "gene median z, three same-vendor siRNAs": -3.04, "Outcome": "active"}
{"gene": "Neil3", "reagent no.": 4, "TNF reporter z-score, mean": 2.28, "gene median z, three same-vendor siRNAs": 0.28, "Outcome": "active"}
{"gene": "Neil3", "reagent no.": 5, "TNF reporter z-score, mean": 1.07, "gene median z, three same-vendor siRNAs": 0.28, "Outcome": "inactive"}
{"gene": "Neil3", "reagent no.": 6, "TNF reporter z-score, mean": -0.308, "gene median z, three same-vendor siRNAs": 0.28, "Outcome": "inactive"}
{"gene": "Hnrnpa1", "reagent no.": 1, "TNF reporter z-score, mean": 0.669, "gene median z, three same-vendor siRNAs": -0.824, "Outcome": "inactive"}
{"gene": "Hnrnpa1", "reagent no.": 2, "TNF reporter z-score, mean": 0.7, "gene median z, three same-vendor siRNAs": -0.824, "Outcome": "inactive"}
{"gene": "Hnrnpa1", "reagent no.": 3, "TNF reporter z-score, mean": -4.36, "gene median z, three same-vendor siRNAs": -0.824, "Outcome": "active"}
{"gene": "Hnrnpa1", "reagent no.": 4, "TNF reporter z-score, mean": 5.13, "gene median z, three same-vendor siRNAs": 0.416, "Outcome": "active"}
{"gene": "Hnrnpa1", "reagent no.": 5, "TNF reporter z-score, mean": 0.416, "gene median z, three same-vendor siRNAs": 0.416, "Outcome": "inactive"}
{"gene": "Hnrnpa1", "reagent no.": 6, "TNF reporter z-score, mean": -1.94, "gene median z, three same-vendor siRNAs": 0.416, "Outcome": "inactive"}
{"gene": "Hdac4", "reagent no.": 1, "TNF reporter z-score, mean": -0.734, "gene median z, three same-vendor siRNAs": -2.49, "Outcome": "inactive"}
{"gene": "Hdac4", "reagent no.": 2, "TNF reporter z-score, mean": -2.5, "gene median z, three same-vendor siRNAs": -2.49, "Outcome": "active"}
{"gene": "Hdac4", "reagent no.": 3, "TNF reporter z-score, mean": -3.28, "gene median z, three same-vendor siRNAs": -2.49, "Outcome": "active"}
{"gene": "Hdac4", "reagent no.": 4, "TNF reporter z-score, mean": 0.577, "gene median z, three same-vendor siRNAs": -1.82, "Outcome": "inactive"}
{"gene": "Hdac4", "reagent no.": 5, "TNF reporter z-score, mean": -1.9, "gene median z, three same-vendor siRNAs": -1.82, "Outcome": "inactive"}
{"gene": "Hdac4", "reagent no.": 6, "TNF reporter z-score, mean": -2.56, "gene median z, three same-vendor siRNAs": -1.82, "Outcome": "active"}
